{"source": "patent US20230277573A1", "about": "“OLIGOSACCHARIDE COMPOSITIONS AND METHODS OF USE” (DSM Nutritional Products, LLC, priority 2020, published 2023)", "key": {"[1]": {"tested_on": "high fat diet (HFD)-induced obese mouse model", "test": "High fat diet (HFD)-induced obese mouse model: blood, liver and body weight readouts", "assay_type": "in vivo", "conditions": "HFD mice, 5 wk, liraglutide 0.2 mg/kg SC QD"}, "[2]": {"tested_on": "cecum content of WD-fed ldlr−/− mice", "test": "SCFAs and succinate in cecum content of WD-fed ldlr−/− mice", "assay_type": "in vivo, mouse", "conditions": "fenofibrate 100 mg/kg/day"}, "[3]": {"tested_on": "western diet (WD)-induced obese low density lipoprotein receptor knock-out (ldlr−/−) mouse model", "test": "Western diet (WD)-induced obese ldlr−/− mouse model: blood, liver, aorta and body weight readouts", "assay_type": "in vivo", "conditions": "WD-fed ldlr−/− mice; fenofibrate 100 mg/kg/day", "experimental": "The therapeutic and microbiome effects of the selected oligosaccharide composition were tested in a validated western diet (WD)-induced obese low density lipoprotein receptor knock-out (ldlr^−/−) mouse model, thought to recapitulate a number of metabolic pathologies found in humans, including obesity, hyperglycemia, glucose intolerance, hyperinsulinemia, insulin resistance, severe hypercholesterolemia, hypertriglyceridemia, atherosclerosis, hepatic steatosis and hepatic inflammation. […]\n9-11 weeks old male C57BL/6J ldlr^−/− mice were split into one of four treatment groups (12 animals per group, 4 animals per cage)—(1) no treatment (NT), (2) the selected oligosaccharide (as produced by the process described in Example 2), (3) a glucose/galactose-based oligosaccharide composition and (4) fenofibrate—for 16 weeks. […] The body weight for each animal was measured prior to the treatment period and weekly over the treatment period. 4-day food intake for each cage was measured weekly over the treatment period and averaged as food intake per mouse per day. […] For each animal, separate liver sections (˜100 mg each) were collected and frozen for the quantification of hepatic TG and hepatic TC. […] The aortic arch was surface stained with oil red O for the quantification of atherosclerotic plaque surface area."}, "[4]": {"conditions": "score 0 to 3, OS 7.5% w/w in diet"}}, "note": "At least one structure is not confirmed: it was looked up by name or label, or the drawing left a doubt."}
{"compound": "CCCCCCCCCCCCCCCC(=O)N[C@@H](CCC(=O)NCCCC[C@H](NC(=O)[C@H](C)NC(=O)[C@H](C)NC(=O)[C@H](CCC(N)=O)NC(=O)CNC(=O)[C@H](CCC(=O)O)NC(=O)[C@H](CC(C)C)NC(=O)[C@H](Cc1ccc(O)cc1)NC(=O)[C@H](CO)NC(=O)[C@H](CO)NC(=O)[C@@H](NC(=O)[C@H](CC(=O)O)NC(=O)[C@H](CO)NC(=O)[C@@H](NC(=O)[C@H](Cc1ccccc1)NC(=O)[C@@H](NC(=O)CNC(=O)[C@H](CCC(=O)O)NC(=O)[C@H](C)NC(=O)[C@@H](N)Cc1cnc[nH]1)[C@@H](C)O)[C@@H](C)O)C(C)C)C(=O)N[C@@H](CCC(=O)O)C(=O)N[C@@H](Cc1ccccc1)C(=O)N[C@H](C(=O)N[C@@H](C)C(=O)N[C@@H](Cc1c[nH]c2ccccc12)C(=O)N[C@@H](CC(C)C)C(=O)N[C@H](C(=O)N[C@@H](CCCNC(=N)N)C(=O)NCC(=O)N[C@@H](CCCNC(=N)N)C(=O)NCC(=O)O)C(C)C)[C@@H](C)CC)C(=O)O", "note": "[liraglutide, Liraglutide]", "values": [{"measurement": "absolute liver weight, change compared to NT", "setting": "[1]; OS 7.5% w/w in diet", "value": "−55", "unit": "%"}, {"measurement": "fasting blood glucose compared to no treatment (NT)", "setting": "[1]; OS 7.5% w/w in diet", "value": "lowered"}, {"measurement": "lowering of hepatic total cholesterol", "setting": "[1]; OS 7.5% w/w in diet", "value": "not"}, {"measurement": "lowering of hepatic triglycerides", "setting": "[1]; OS 7.5% w/w in diet", "value": "lowered"}, {"measurement": "relative liver weight, change compared to NT", "setting": "[1]; OS 7.5% w/w in diet", "value": "−24", "unit": "%"}, {"measurement": "body weight lowered by", "setting": "[1]", "value": 15, "unit": "%"}, {"measurement": "effect on blood triglycerides (TG)", "setting": "[1]", "value": "did not impact"}, {"measurement": "serum total cholesterol (TC), change", "setting": "[1]; fasted", "value": "−41", "unit": "%"}, {"measurement": "liver inflammation pathology score, change compared to NT", "setting": "[1]; [4]", "value": "−1", "unit": "point"}, {"measurement": "liver steatosis pathology score, change compared to NT", "setting": "[1]; [4]", "value": "−3", "unit": "points"}]}
{"compound": "CC(C)OC(=O)C(C)(C)Oc1ccc(C(=O)c2ccc(Cl)cc2)cc1", "note": "[fenofibrate, Fenofibrate]", "values": [{"measurement": "effect on total amount or proportion of SCFAs or succinate", "setting": "[2]", "value": "did not modify"}, {"measurement": "effect on HOMA-IR compared to NT", "setting": "[3]", "value": "reduced"}, {"measurement": "effect on fasting insulin compared to NT", "setting": "[3]", "value": "reduced"}]}
